The supplement of paper PMC7661543
± gives the standard deviation of the averaged measurements. Differences between knockout arms are mostly noise.

Tested on: HCC-38
Experiment: relative cell number vs DMSO control (72 h) (% of DMSO); higher = less growth inhibition (more cells)
Description: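 QMAP-Seq: a pool of 5 breast cancer cell lines (ZR-75-1, SKBR3, HCC-38, MDA-MB-231, BT-20), each carrying 12 doxycycline-inducible Cas9 sgRNA perturbations (11 knockouts plus non-targeting sgNT), was treated with compounds for 72 h at four 10-fold doses (10 nM-10 uM or 1 nM-1 uM range). Barcodes were amplified and sequenced, and cell number was interpolated from 293T spike-in standard curves. The result is expressed as % of the median of DMSO wells. Two biological replicates.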

[1] = sgRNA knockout: sgATF3, 1000 nM
[2] = sgRNA knockout: sgATF3, 10000 nM
[3] = sgRNA knockout: sgATF4, 1000 nM
[4] = sgRNA knockout: sgATF4, 10000 nM
[5] = sgRNA knockout: sgATF6, 1000 nM
[6] = sgRNA knockout: sgATF6, 10000 nM
[7] = sgRNA knockout: sgATG7, 1000 nM
[8] = sgRNA knockout: sgATG7, 10000 nM
[9] = sgRNA knockout: sgERN1, 1000 nM
[10] = sgRNA knockout: sgERN1, 10000 nM
[11] = sgRNA knockout: sgHSF1, 1000 nM
[12] = sgRNA knockout: sgHSF1, 10000 nM
[13] = sgRNA knockout: sgHSF2, 1000 nM
[14] = sgRNA knockout: sgHSF2, 10000 nM
[15] = sgRNA knockout: sgKEAP1, 100 nM
[16] = sgRNA knockout: sgKEAP1, 1000 nM
[17] = sgRNA knockout: sgKEAP1, 10000 nM
[18] = sgRNA knockout: sgNFE2L2, 10 nM
[19] = sgRNA knockout: sgNFE2L2, 100 nM
[20] = sgRNA knockout: sgNFE2L2, 1000 nM
[21] = sgRNA knockout: sgNFE2L2, 10000 nM
[22] = sgRNA knockout: sgSLC35F2, 10 nM
[23] = sgRNA knockout: sgSLC35F2, 100 nM
[24] = sgRNA knockout: sgSLC35F2, 1000 nM
[25] = sgRNA knockout: sgSLC35F2, 10000 nM
[26] = sgRNA knockout: sgXBP1, 1000 nM
[27] = sgRNA knockout: sgXBP1, 10000 nM

Compound: CN(Cc1cnc2nc(N)nc(N)c2n1)c1ccc(C(=O)N[C@@H](CCC(=O)O)C(=O)O)cc1 [Methotrexate]
- relative cell number (sgRNA knockout: sgATF3, 10 nM): 103 ± 5.5
- relative cell number (sgRNA knockout: sgATF3, 100 nM): 55.4 ± 3.6
- relative cell number [1]: 38.2 ± 1.2
- relative cell number [2]: 33.6 ± 5.6
- relative cell number (sgRNA knockout: sgATF4, 10 nM): 92.9 ± 4
- relative cell number (sgRNA knockout: sgATF4, 100 nM): 55.78 ± 0.41
- relative cell number [3]: 43.1 ± 5.6
- relative cell number [4]: 29.7 ± 0.78
- relative cell number (sgRNA knockout: sgATF6, 10 nM): 89.7 ± 6.8
- relative cell number (sgRNA knockout: sgATF6, 100 nM): 60.595 ± 0.015
- relative cell number [5]: 43.57 ± 0.19
- relative cell number [6]: 36.5 ± 3.5
- relative cell number (sgRNA knockout: sgATG7, 10 nM): 105 ± 11
- relative cell number (sgRNA knockout: sgATG7, 100 nM): 55.3 ± 8.5
- relative cell number [7]: 40.2 ± 2.4
- relative cell number [8]: 28.6 ± 2.2
- relative cell number (sgRNA knockout: sgERN1, 10 nM): 107 ± 8.7
- relative cell number (sgRNA knockout: sgERN1, 100 nM): 55.7 ± 5.3
- relative cell number [9]: 40.2 ± 1.9
- relative cell number [10]: 31.8 ± 0.5
- relative cell number (sgRNA knockout: sgHSF1, 10 nM): 111 ± 11
- relative cell number (sgRNA knockout: sgHSF1, 100 nM): 53.4 ± 3.5
- relative cell number [11]: 52.3 ± 11
- relative cell number [12]: 35.8 ± 7.4
- relative cell number (sgRNA knockout: sgHSF2, 10 nM): 110 ± 3.5
- relative cell number (sgRNA knockout: sgHSF2, 100 nM): 52 ± 1.4
- relative cell number [13]: 44.1 ± 1.8
- relative cell number [14]: 34.2 ± 0.58
- relative cell number (sgRNA knockout: sgKEAP1, 10 nM): 101 ± 16
- relative cell number [15]: 71 ± 17
- relative cell number [16]: 42.2 ± 1
- relative cell number [17]: 38.7 ± 2.3
- relative cell number [18]: 100 ± 1.4
- relative cell number [19]: 52.8 ± 6.3
- relative cell number [20]: 36.2 ± 0.81
- relative cell number [21]: 29.81 ± 0.14
- relative cell number [22]: 101 ± 3
- relative cell number [23]: 51.5 ± 4.1
- relative cell number [24]: 40.6 ± 8.7
- relative cell number [25]: 32 ± 1.2
- relative cell number (sgRNA knockout: sgXBP1, 10 nM): 97.5 ± 3.5
- relative cell number (sgRNA knockout: sgXBP1, 100 nM): 55.9 ± 2
- relative cell number [26]: 39.8 ± 4
- relative cell number [27]: 32.4 ± 0.9

Compound: CCC(C)SSc1ncc[nH]1 (configuration not stated) [PX12]
- relative cell number (sgRNA knockout: sgATF3, 10 nM): 103 ± 7.3
- relative cell number (sgRNA knockout: sgATF3, 100 nM): 111 ± 1.2
- relative cell number [1]: 98.1 ± 4.5
- relative cell number [2]: 87.2 ± 13
- relative cell number (sgRNA knockout: sgATF4, 10 nM): 106.3 ± 0.68
- relative cell number (sgRNA knockout: sgATF4, 100 nM): 116 ± 31
- relative cell number [3]: 89.1 ± 9.6
- relative cell number [4]: 81.1 ± 5.2
- relative cell number (sgRNA knockout: sgATF6, 10 nM): 108 ± 17
- relative cell number (sgRNA knockout: sgATF6, 100 nM): 109 ± 5.6
- relative cell number [5]: 89 ± 2.4
- relative cell number [6]: 80.7 ± 1
- relative cell number (sgRNA knockout: sgATG7, 10 nM): 103 ± 10
- relative cell number (sgRNA knockout: sgATG7, 100 nM): 107 ± 9.9
- relative cell number [7]: 88 ± 6.8
- relative cell number [8]: 82 ± 1.8
- relative cell number (sgRNA knockout: sgERN1, 10 nM): 98.8 ± 9.9
- relative cell number (sgRNA knockout: sgERN1, 100 nM): 107 ± 8.6
- relative cell number [9]: 99 ± 9.3
- relative cell number [10]: 81.8 ± 6.9
- relative cell number (sgRNA knockout: sgHSF1, 10 nM): 107 ± 13
- relative cell number (sgRNA knockout: sgHSF1, 100 nM): 123 ± 35
- relative cell number [11]: 86.1 ± 6.9
- relative cell number [12]: 88.4 ± 3.4
- relative cell number (sgRNA knockout: sgHSF2, 10 nM): 104 ± 2.1
- relative cell number (sgRNA knockout: sgHSF2, 100 nM): 117 ± 7.1
- relative cell number [13]: 96.4 ± 5.5
- relative cell number [14]: 74.4 ± 8.8
- relative cell number (sgRNA knockout: sgKEAP1, 10 nM): 116 ± 38
- relative cell number [15]: 129 ± 47
- relative cell number [16]: 86.4 ± 2.5
- relative cell number [17]: 87.3 ± 6.7
- relative cell number [18]: 102 ± 4
- relative cell number [19]: 106 ± 30
- relative cell number [20]: 85.5 ± 16
- relative cell number [21]: 82.5 ± 1.1
- relative cell number [22]: 107 ± 10
- relative cell number [23]: 106 ± 4.9
- relative cell number [24]: 87.7 ± 10
- relative cell number [25]: 77.1 ± 13
- relative cell number (sgRNA knockout: sgXBP1, 10 nM): 111 ± 1.5
- relative cell number (sgRNA knockout: sgXBP1, 100 nM): 108 ± 6.7
- relative cell number [26]: 88.2 ± 18
- relative cell number [27]: 84 ± 4

Compound: COc1cc(CCc2cc(NC(=O)c3ccc(N4CC(C)NC(C)C4)cc3)n[nH]2)cc(OC)c1 (configuration not stated) [AZD4547]
- relative cell number (sgRNA knockout: sgATF3, 10 nM): 87.4 ± 3.6
- relative cell number (sgRNA knockout: sgATF3, 100 nM): 67.2 ± 7.3
- relative cell number [1]: 54.5 ± 6.3
- relative cell number [2]: 43.9 ± 1.9
- relative cell number (sgRNA knockout: sgATF4, 10 nM): 88.4 ± 2.2
- relative cell number (sgRNA knockout: sgATF4, 100 nM): 67 ± 14
- relative cell number [3]: 54.4 ± 3.5
- relative cell number [4]: 46.4 ± 2.9
- relative cell number (sgRNA knockout: sgATF6, 10 nM): 81.2 ± 2.7
- relative cell number (sgRNA knockout: sgATF6, 100 nM): 52.6 ± 5.6
- relative cell number [5]: 57.2 ± 2.3
- relative cell number [6]: 35.53 ± 0.19
- relative cell number (sgRNA knockout: sgATG7, 10 nM): 85.8 ± 7.2
- relative cell number (sgRNA knockout: sgATG7, 100 nM): 70.2 ± 15
- relative cell number [7]: 55.2 ± 4.1
- relative cell number [8]: 41 ± 4.5
- relative cell number (sgRNA knockout: sgERN1, 10 nM): 87.1 ± 12
- relative cell number (sgRNA knockout: sgERN1, 100 nM): 64.1 ± 4.6
- relative cell number [9]: 56.5 ± 4.5
- relative cell number [10]: 42.6 ± 1.4
- relative cell number (sgRNA knockout: sgHSF1, 10 nM): 85.3 ± 12
- relative cell number (sgRNA knockout: sgHSF1, 100 nM): 70.7 ± 14
- relative cell number [11]: 79.9 ± 9.4
- relative cell number [12]: 37.8 ± 1.8
- relative cell number (sgRNA knockout: sgHSF2, 10 nM): 86.4 ± 6
- relative cell number (sgRNA knockout: sgHSF2, 100 nM): 69.9 ± 11
- relative cell number [13]: 57.7 ± 6.2
- relative cell number [14]: 43.7 ± 4
- relative cell number (sgRNA knockout: sgKEAP1, 10 nM): 76.9 ± 4
- relative cell number [15]: 67.2 ± 8.5
- relative cell number [16]: 61.4 ± 11
- relative cell number [17]: 33.5 ± 9.4
- relative cell number [18]: 87.49 ± 0.24
- relative cell number [19]: 63.3 ± 16
- relative cell number [20]: 52.3 ± 2.4
- relative cell number [21]: 44.6 ± 4.3
- relative cell number [22]: 93.09 ± 0.72
- relative cell number [23]: 70.3 ± 14
- relative cell number [24]: 62.44 ± 0.28
- relative cell number [25]: 40.9 ± 2.8
- relative cell number (sgRNA knockout: sgXBP1, 10 nM): 88.8 ± 1
- relative cell number (sgRNA knockout: sgXBP1, 100 nM): 60.6 ± 10
- relative cell number [26]: 59.5 ± 0.66
- relative cell number [27]: 42.4 ± 6.6
